Values quoted from earlier work in patent US20230355571A1, “METHOD FOR TREATING VIRAL AND BACTERIAL INFECTION THROUGH INHALATION THERAPY” (priority 2020, published 2023).
For at least one compound, name, drawing or mass did not settle the structure.

Tests used:
[1] = cited from earlier work
[2] = cited from earlier work; remark: listed apart in the source

In the case of `C=C1CC/C=C(\C)CC[C@@H]2[C@@H]1CC2(C)C` [β-caryophyllene], the “radical scavenging (antioxidant) concentration, DPPH” value [1] is given as 1.25 µM and the “radical scavenging concentration, FRAP” value [2] is given as 3.23 µM.
